Assay results as given in publication doi:10.1101/2024.01.31.578330.
No constants are given. Whether binding was seen depends on the method and setting. In cells and extracts the contact can be indirect. Some binding calls cover weakened binding; strength is not graded here. Sequences can lack the tags named with a protein.

Protein sequences, listed by entry. Tags and fused reporters are not part of them.
UniProt Q9HWH1: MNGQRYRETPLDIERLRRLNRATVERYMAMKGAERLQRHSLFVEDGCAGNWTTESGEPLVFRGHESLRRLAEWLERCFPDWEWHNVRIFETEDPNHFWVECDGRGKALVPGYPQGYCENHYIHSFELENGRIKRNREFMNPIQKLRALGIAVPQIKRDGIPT
UniProt P24734: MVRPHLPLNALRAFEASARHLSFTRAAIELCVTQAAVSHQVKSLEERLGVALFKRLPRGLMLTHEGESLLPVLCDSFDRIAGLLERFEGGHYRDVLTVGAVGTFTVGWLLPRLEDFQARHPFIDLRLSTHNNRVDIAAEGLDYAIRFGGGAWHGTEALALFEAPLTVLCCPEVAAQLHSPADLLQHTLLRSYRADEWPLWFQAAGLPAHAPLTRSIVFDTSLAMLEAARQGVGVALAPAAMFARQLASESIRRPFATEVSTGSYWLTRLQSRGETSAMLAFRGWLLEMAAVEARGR
UniProt Q95Q95: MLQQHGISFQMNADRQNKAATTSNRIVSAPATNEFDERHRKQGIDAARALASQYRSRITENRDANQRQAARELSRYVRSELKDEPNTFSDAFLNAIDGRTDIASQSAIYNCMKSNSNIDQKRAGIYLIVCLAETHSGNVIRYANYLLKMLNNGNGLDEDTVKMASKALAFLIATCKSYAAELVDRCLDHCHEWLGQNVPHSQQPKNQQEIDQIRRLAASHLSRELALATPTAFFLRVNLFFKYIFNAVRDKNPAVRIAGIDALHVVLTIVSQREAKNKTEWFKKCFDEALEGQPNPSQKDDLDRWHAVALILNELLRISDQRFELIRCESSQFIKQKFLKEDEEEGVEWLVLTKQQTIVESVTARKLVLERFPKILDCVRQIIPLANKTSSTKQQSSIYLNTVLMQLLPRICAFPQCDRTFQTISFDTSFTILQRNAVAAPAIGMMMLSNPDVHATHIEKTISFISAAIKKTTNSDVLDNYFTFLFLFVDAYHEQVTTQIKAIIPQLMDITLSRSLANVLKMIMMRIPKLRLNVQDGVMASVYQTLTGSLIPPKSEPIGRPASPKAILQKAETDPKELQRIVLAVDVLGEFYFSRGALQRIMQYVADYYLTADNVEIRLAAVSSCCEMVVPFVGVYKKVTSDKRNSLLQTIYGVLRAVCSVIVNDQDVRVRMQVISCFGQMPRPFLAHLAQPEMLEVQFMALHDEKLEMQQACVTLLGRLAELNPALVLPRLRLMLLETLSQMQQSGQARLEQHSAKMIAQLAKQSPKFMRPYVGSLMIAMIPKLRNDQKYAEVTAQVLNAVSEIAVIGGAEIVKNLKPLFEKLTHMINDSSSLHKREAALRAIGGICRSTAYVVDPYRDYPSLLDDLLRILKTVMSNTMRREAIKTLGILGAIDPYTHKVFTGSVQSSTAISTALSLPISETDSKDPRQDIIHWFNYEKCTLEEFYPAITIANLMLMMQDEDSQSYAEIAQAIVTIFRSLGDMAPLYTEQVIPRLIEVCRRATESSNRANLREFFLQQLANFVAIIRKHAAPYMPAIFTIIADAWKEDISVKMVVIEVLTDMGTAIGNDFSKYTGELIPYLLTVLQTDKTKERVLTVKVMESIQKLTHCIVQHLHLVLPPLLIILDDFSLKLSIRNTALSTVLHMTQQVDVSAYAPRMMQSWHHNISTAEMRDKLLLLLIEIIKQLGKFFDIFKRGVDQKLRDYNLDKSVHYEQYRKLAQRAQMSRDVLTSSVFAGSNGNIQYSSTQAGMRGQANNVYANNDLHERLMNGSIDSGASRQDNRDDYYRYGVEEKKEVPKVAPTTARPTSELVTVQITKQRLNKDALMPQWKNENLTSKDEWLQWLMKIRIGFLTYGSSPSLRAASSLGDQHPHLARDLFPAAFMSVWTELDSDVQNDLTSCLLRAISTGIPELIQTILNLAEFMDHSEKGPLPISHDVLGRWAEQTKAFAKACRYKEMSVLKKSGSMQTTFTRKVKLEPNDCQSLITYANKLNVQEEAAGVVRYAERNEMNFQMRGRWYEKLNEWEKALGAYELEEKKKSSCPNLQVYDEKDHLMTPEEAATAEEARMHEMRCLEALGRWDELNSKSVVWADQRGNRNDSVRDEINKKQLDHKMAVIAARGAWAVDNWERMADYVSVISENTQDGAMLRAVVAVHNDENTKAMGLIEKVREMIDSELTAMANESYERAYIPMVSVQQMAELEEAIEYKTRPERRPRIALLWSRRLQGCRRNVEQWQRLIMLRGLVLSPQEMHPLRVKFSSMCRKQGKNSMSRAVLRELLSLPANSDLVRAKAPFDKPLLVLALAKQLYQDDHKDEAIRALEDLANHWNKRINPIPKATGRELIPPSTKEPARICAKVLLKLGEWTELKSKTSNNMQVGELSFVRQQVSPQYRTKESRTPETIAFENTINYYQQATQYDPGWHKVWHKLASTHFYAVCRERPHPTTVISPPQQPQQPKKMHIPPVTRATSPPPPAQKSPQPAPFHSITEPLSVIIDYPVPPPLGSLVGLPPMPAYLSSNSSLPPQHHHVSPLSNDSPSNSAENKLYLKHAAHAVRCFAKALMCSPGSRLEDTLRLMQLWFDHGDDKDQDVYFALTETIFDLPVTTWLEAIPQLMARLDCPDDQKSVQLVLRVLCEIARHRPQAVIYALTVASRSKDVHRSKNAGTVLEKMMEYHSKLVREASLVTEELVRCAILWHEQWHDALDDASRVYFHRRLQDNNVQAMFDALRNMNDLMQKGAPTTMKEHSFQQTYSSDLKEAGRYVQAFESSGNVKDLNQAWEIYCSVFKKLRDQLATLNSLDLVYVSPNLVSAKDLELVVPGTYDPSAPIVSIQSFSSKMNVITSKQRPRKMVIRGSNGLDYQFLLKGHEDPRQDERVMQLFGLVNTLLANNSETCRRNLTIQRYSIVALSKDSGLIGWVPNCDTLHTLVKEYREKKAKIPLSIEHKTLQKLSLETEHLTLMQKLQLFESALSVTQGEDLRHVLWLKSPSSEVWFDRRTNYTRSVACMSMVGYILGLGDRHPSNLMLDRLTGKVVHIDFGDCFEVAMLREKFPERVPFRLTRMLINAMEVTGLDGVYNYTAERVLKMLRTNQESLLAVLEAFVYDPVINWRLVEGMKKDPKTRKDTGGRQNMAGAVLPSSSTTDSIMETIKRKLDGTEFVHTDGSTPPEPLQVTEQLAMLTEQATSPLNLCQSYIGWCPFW

Legend:
Experiment in all cases: co-IP
GFP::PAR-5 (C. elegans) = biological target: T1, GFP::PAR-5 (C. elegans) (UniProt P41932)
T1 sequence: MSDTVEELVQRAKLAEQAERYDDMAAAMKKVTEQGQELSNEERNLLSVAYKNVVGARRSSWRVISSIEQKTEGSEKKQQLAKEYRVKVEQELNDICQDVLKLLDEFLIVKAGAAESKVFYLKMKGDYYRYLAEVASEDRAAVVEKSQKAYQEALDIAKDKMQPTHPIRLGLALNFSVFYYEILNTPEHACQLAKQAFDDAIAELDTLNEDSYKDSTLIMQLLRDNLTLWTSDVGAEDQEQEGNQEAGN

[1] = biological target: FLAG-PHZA1 (P. aeruginosa PA14) (UniProt Q9HWH1)
[2] = biological target: FLAG-AMPR (P. aeruginosa PA14) (UniProt P24734)
[3] = biological target: FLAG::LET-363 (C. elegans) (UniProt Q95Q95)

For “FLAG::LET-363 (from UniProt Q95Q95 1-2697)”, the binding (GFP::PAR-5 (C. elegans)) was “binds”.

B1: His-PAR-5 (protein, UniProt P41932 1-248)
chain: MSDTVEELVQRAKLAEQAERYDDMAAAMKKVTEQGQELSNEERNLLSVAYKNVVGARRSSWRVISSIEQKTEGSEKKQQLAKEYRVKVEQELNDICQDVLKLLDEFLIVKAGAAESKVFYLKMKGDYYRYLAEVASEDRAAVVEKSQKAYQEALDIAKDKMQPTHPIRLGLALNFSVFYYEILNTPEHACQLAKQAFDDAIAELDTLNEDSYKDSTLIMQLLRDNLTLWTSDVGAEDQEQEGNQEAGN
B1 was tested, and the binding [1] was “binds” and the binding [2] was “binds”.

B2: GFP::PAR-5 (protein, UniProt P41932 1-248)
chain: MSDTVEELVQRAKLAEQAERYDDMAAAMKKVTEQGQELSNEERNLLSVAYKNVVGARRSSWRVISSIEQKTEGSEKKQQLAKEYRVKVEQELNDICQDVLKLLDEFLIVKAGAAESKVFYLKMKGDYYRYLAEVASEDRAAVVEKSQKAYQEALDIAKDKMQPTHPIRLGLALNFSVFYYEILNTPEHACQLAKQAFDDAIAELDTLNEDSYKDSTLIMQLLRDNLTLWTSDVGAEDQEQEGNQEAGN
B2 was tested, and the binding [3] was “binds”.
